Measurements taken from PMC9674678.
Substitutions are numbered along the chain they refer to. In names and notes the source's numbering stands. Results are given in words; binding and its absence hold for the method and conditions named. In cells and extracts the contact can be indirect. Some results given as binding are weak or reduced against the parent protein; the word gives no strength.

T1: Dpb11-VN (S. cerevisiae) (UniProt P47027)
T1 sequence: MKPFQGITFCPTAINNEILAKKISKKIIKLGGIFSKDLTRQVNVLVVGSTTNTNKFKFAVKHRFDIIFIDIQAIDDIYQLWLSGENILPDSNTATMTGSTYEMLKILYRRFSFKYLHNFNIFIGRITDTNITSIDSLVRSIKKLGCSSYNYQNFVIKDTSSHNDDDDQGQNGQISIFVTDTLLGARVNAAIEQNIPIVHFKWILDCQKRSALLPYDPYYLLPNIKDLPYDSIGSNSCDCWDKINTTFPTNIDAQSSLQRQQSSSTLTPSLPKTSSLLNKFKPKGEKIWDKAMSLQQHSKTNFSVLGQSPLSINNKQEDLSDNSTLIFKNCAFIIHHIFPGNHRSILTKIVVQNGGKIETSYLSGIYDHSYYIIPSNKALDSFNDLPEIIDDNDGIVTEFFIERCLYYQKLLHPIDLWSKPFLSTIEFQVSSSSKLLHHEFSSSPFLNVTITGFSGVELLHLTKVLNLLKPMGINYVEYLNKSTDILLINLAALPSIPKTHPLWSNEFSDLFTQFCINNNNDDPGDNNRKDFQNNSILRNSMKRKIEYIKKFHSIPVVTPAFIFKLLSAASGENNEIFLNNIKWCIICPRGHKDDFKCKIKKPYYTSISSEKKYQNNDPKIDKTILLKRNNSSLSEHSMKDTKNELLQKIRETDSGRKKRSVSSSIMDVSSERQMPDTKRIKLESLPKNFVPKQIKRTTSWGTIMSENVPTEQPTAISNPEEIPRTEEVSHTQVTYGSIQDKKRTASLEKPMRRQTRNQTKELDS

B1: VC-Sld2 (protein, UniProt P34252 1-453)
chain: MYSFELDKLKIELKTWEHDFIDKNKREPTRDDIKSLRTVRQMYKQYSTLKKKQSLQRQKVDTQESVELPAHKKDHDEVVEIGPTPQVYGKAISIFDMNLSPIKPIYMTFTNNIDVNNDNSKTISNESSPRKTILLKSSPADRTLVAEPISSVKRQLNFQMLNASSTRTPTSSPCKNRNGKLVEIKKCSPTINPPLESGKPSGYYGPNSPLKLDEENIHLNISLNSSTKRRLQIAYPSLQKTPSKDQADISTSFSPSPLIRRPLTKSLIELAREHTEIVKEFGVLQEEDIEEEEEGEEGENGYDEKNHEDDFGLEDELIRPKVVKDIFQEDDDNDDSQAREDTFIRKRPKRRKVIRRLRDNDPETETAGFERDVHKELVKLKRRKVAEFLGSTSQISDTEFEHDPEASSGVVSSEQKPTAKRKGRKKYNLVSNNFRRLKLPKKNRFSNGRWGRR
B2: Sld2-VC (protein, UniProt P34252 1-453)
chain: B1 chain
B3: VC-sld2-T84A (protein, UniProt P34252 1-453)
chain: B1 chain with T84A

Each binder was assayed against T1, Dpb11-VN (S. cerevisiae) (assay: split reporter; split-Venus (VN/VC) fluorescence measured by flow cytometry in log-phase yeast cells grown in YPD at 30 °C; background of a strain with untagged SLD2 subtracted; the VN/VC tags stabilize the interaction).

Row | Binder | binding
1 | B1 | binds
2 | B2 | binds
3 | B3 | no binding
